# Source: US7718676B2, “2-aminoaryloxazole compounds as tyrosine kinase inhibitors” (AB Science, priority 2003, dated 2010)
# Sequences of proteins named here, by UniProt entry; tags and fusion partners are left off. A change or cut given only in a name is not applied to a line headed by its entry. A line that says so, or that is headed by a name, gives the form on record, which may keep a tag or linker.
# UniProt P05532, with tags, fused parts or gaps DEL551-559: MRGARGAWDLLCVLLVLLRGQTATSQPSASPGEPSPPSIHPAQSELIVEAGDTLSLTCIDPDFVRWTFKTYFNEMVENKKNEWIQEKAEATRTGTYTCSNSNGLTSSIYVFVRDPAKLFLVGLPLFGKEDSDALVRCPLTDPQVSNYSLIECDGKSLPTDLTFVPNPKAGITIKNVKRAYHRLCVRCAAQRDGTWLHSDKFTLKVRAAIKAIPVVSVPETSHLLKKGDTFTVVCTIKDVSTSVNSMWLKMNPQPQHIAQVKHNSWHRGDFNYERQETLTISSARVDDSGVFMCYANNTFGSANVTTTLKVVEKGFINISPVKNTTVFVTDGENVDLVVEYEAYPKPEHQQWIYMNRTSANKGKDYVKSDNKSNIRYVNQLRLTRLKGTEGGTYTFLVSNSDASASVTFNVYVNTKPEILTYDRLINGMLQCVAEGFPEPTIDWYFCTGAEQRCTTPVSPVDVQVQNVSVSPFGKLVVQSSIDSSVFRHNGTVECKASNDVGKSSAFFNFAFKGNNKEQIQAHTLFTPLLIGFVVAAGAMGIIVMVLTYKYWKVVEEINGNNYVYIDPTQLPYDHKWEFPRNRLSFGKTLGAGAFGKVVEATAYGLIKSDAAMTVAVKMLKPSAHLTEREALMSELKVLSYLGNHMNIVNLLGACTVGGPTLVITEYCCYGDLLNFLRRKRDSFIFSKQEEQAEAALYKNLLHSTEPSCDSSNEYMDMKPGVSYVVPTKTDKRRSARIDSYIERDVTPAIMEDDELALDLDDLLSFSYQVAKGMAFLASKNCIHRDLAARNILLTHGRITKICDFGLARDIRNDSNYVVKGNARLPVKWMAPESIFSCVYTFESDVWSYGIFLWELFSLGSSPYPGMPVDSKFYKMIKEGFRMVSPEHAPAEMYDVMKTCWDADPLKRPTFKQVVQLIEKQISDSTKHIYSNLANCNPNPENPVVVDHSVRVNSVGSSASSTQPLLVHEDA
# pIC50: −log10 of the molar value. Some of these results come from one statement about several compounds together.
# Key:
# [1] = biological target: c-Kit WT (UniProt P10721); test: In vitro TK inhibition, proliferation assay ([3H] thymidine incorporation), c-Kit WT; type: cell-based; details: Ba/F3 murine kit and human kit cells
# [2] = biological target: c-Kit JM Δ27 (Mus musculus, UniProt P05532); test: In vitro TK inhibition, proliferation assay ([3H] thymidine incorporation), c-Kit JM Δ27; type: cell-based, murine; details: c-Kit JM Δ27 (juxtamembrane deletion); Ba/F3 mkitΔ27
# [3] = biological target: T1, c-Kit D816V (Homo sapiens, UniProt P10721, D816V); test: In vitro TK inhibition, proliferation assay ([3H] thymidine incorporation), c-Kit D816V; type: cell-based; details: hkitD816V
# T1 construct: expressed in transfected cells; host or cells: Ba/F3 (murine IL-3 dependent proB lymphoid cells)
structure (smiles),measurement,setting,value
"COc1ccc(NC(=O)Cc2ccc(C(F)(F)F)cc2)cc1Nc1ncc(-c2ccncc2)o1 [Compound 055, N-[4-Methoxy-3-(5-pyridin-4-yl-oxazol-2-ylamino)-phenyl]-2-(4-trifluoromethyl-phenyl)-acetamide]",pIC50,[1],> 6.00
same,pIC50,[2],> 6.00
same,pIC50,[3],≥ 6.00
